# Assay results taken from US6376504B1 (Parker Hughes Institute, priority 1998, dated 2002).
# Some of these results come from one statement about several compounds together.
# Test system: human sperm acrosomal membrane
# Assay: Sperm acrosomal membrane integrity, confocal laser scanning microscopy (FITC-Pisum sativum lectin)
# Assay type: cell-based
# Details: after 6 hours of incubation
# Protocol: The percentages of sperm with an intact acrosome following a 6 hour treatment with and without increasing concentrations (31.2 μM to 500 μM) o f th e three NNIs (S-DABO, F-PBT and D-PBT in comparison to N-9 were evaluated by CLSM. Ethanol permeabilized and airdried sperm smears were stained sequentially with the three fluorescent markers, FITC-Pisum sativum lectin, TOTO-3 iodide, and Nile red (Molecular Probes, Eugene, Oreg.) because their targets are different (acrosome, nucleus, and membrane lipid respectively). Samples were examined under a BioRad MRC-1024 Laser Scanning Confocal Microscope (BioRad Laboratories, Hercules, Calif.) equipped with a krypton/argon mixed gas laser (excitation lines 488, 568, and 647 nm) and mounted on a Nikon Eclipse E800 series upright microscope. The fluorescence emission of fluorescein, TOTO-3 iodide, and Nile red from the acrosomal region, nucleus, and the plasma membrane of sperm after ethanol permteabilization were si multan eously detected using the […], and 680 DF32 emission/filter, respectively. Confocal images were obtained using a Nikon 100×(NA 1.35) objective lens and Kalman collection filter. Digitized images were saved on a Jaz disk (Iomega Corporation, Roy, UT) and process ed using Lasersharp Bio-Rad) with the Adobe Photoshop software (Adobe Systems, Mountain View, Calif.). […]
compound,measurement,value
"CSCSc1nc(Cc2ccccc2)c(C(C)C)c(=O)[nH]1 [S-DABO, 5-isopropyl-2-[(methylthiomethyl)thio]-6-(benzyl)-pyrimidin-4-(1H)-one]",treated sperm with acrosomal staining,> 90%
